Measurements as given in PMC10791559.
No constants are given. Whether binding was seen depends on the method and setting. In cells and extracts the contact can be indirect. Some binding calls cover weakened binding; strength is not graded here.

Target: EB1-mRFP (human EB1 with monomeric red fluorescent protein fused to the C-terminus through an RDP linker), expressed in rat ventricular myocytes by adenovirus (human) (UniProt Q15691)
Test: co-IP; rat ventricular myocytes transduced with Adv-EB1-mRFP (and Adv-GFP-NaV1.5), 1% Triton lysis buffer; protein A/G magnetic beads with mCherry rabbit Ab at 4°C overnight; immunoblot with EB1 rat Ab

B1: native EB1 of rat ventricular myocytes (protein, UniProt Q66HR2 1-268)
chain: MAVNVYSTSVTSDNLSRHDMLAWINESLQLNLTKIEQLCSGAAYCQFMDMLFPGSIALKKVKFQAKLEHEYIQNFKILQAGFKRMGVDKIIPVDKLVKGKFQDNFEFVQWFKKFFDANYDGKEYDPVAARQGQETAVAPSLVAPALSKPKKPLGSGSAAPQRPIATQRTTAAPKAGPGMVRKNPGMGNGDDEAAELMQQVKVLKLTVEDLEKERDFYFGKLRNIELICQENEGENDPVLQRIVDILYATDEGFVIPDEGGPQEEQEEY
In the case of B1, the binding is reported as “binds”.
